These are yes or no findings as the source states them, for the method shown. Binding seen in cells or lysates may run through a third protein. Some results given as binding are weak or reduced against the parent protein; the word gives no strength. For some assays here: Tags and fused reporters may be left off the sequences shown.
Legend:
[1] = target: T1, Flag-mouse lipin-2 (mouse) (UniProt Q99PI5); test: co-IP; 293T cells co-transfected with Flag- and HA-tagged plasmids; anti-HA or anti-Flag beads, NP-40 lysis buffer (50 mM Tris-Cl pH 7.5, 120 mM NaCl, 0.5% NP-40), 4 °C, 4 h; immunoblot
T1 sequence: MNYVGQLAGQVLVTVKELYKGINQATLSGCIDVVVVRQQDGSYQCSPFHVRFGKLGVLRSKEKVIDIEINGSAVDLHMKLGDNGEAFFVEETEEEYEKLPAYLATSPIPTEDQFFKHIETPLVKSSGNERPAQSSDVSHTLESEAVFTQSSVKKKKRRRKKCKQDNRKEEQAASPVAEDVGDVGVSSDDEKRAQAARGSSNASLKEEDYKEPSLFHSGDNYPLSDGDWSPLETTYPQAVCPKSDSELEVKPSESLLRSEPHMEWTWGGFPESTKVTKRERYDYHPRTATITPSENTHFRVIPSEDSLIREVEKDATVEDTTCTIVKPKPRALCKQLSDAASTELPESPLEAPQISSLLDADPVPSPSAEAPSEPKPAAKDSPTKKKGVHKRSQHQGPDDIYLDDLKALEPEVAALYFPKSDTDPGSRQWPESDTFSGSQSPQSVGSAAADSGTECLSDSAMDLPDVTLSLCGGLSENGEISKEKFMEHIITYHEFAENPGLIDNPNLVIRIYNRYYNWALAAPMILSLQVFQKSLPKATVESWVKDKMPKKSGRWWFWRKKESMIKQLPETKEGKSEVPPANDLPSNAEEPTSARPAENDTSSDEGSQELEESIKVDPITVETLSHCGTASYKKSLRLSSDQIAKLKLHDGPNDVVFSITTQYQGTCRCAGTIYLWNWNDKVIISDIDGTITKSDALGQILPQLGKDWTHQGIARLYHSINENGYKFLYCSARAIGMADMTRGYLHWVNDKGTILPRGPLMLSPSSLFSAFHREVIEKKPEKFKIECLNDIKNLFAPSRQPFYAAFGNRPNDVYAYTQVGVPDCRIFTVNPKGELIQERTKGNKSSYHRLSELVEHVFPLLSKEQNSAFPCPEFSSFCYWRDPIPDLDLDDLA

[2] = target: T2, TAK1 (endogenous, RAW-D cells) (mouse (endogenous in RAW-D)) (UniProt Q62073); test: co-IP; endogenous proteins of RAW-D cells; anti-TAK1 antibody-conjugated beads, normal mouse IgG as control IP, NP-40 lysis buffer, 4 °C, 4 h; immunoblot
T2 sequence: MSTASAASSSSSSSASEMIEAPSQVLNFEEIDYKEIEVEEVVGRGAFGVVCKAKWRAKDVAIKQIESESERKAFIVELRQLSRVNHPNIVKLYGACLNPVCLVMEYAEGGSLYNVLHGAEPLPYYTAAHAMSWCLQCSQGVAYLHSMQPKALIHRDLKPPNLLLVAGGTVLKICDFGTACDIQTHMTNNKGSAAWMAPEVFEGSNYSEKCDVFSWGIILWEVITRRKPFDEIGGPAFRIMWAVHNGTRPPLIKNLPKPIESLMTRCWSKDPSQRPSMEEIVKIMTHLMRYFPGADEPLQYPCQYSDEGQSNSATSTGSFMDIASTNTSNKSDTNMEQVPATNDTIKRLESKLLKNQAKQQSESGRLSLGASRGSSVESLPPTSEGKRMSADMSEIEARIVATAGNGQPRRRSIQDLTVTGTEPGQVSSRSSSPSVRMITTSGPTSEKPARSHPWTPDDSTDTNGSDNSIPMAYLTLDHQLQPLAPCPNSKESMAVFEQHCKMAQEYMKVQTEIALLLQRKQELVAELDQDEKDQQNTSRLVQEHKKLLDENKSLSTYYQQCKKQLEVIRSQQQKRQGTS

B1: HA-TAK1 (enzyme, UniProt O43318 1-606)
chain: MSTASAASSSSSSSAGEMIEAPSQVLNFEEIDYKEIEVEEVVGRGAFGVVCKAKWRAKDVAIKQIESESERKAFIVELRQLSRVNHPNIVKLYGACLNPVCLVMEYAEGGSLYNVLHGAEPLPYYTAAHAMSWCLQCSQGVAYLHSMQPKALIHRDLKPPNLLLVAGGTVLKICDFGTACDIQTHMTNNKGSAAWMAPEVFEGSNYSEKCDVFSWGIILWEVITRRKPFDEIGGPAFRIMWAVHNGTRPPLIKNLPKPIESLMTRCWSKDPSQRPSMEEIVKIMTHLMRYFPGADEPLQYPCQYSDEGQSNSATSTGSFMDIASTNTSNKSDTNMEQVPATNDTIKRLESKLLKNQAKQQSESGRLSLGASRGSSVESLPPTSEGKRMSADMSEIEARIAATTAYSKPKRGHRKTASFGNILDVPEIVISGNGQPRRRSIQDLTVTGTEPGQVSSRSSSPSVRMITTSGPTSEKPTRSHPWTPDDSTDTNGSDNSIPMAYLTLDHQLQPLAPCPNSKESMAVFEQHCKMAQEYMKVQTEIALLLQRKQELVAELDQDEKDQQNTSRLVQEHKKLLDENKSLSTYYQQCKKQLEVIRSQQQKRQGTS
binding [1]: binds

B2: lipin2 (endogenous, RAW-D cells) (protein, UniProt Q99PI5 1-893)
chain: MNYVGQLAGQVLVTVKELYKGINQATLSGCIDVVVVRQQDGSYQCSPFHVRFGKLGVLRSKEKVIDIEINGSAVDLHMKLGDNGEAFFVEETEEEYEKLPAYLATSPIPTEDQFFKHIETPLVKSSGNERPAQSSDVSHTLESEAVFTQSSVKKKKRRRKKCKQDNRKEEQAASPVAEDVGDVGVSSDDEKRAQAARGSSNASLKEEDYKEPSLFHSGDNYPLSDGDWSPLETTYPQAVCPKSDSELEVKPSESLLRSEPHMEWTWGGFPESTKVTKRERYDYHPRTATITPSENTHFRVIPSEDSLIREVEKDATVEDTTCTIVKPKPRALCKQLSDAASTELPESPLEAPQISSLLDADPVPSPSAEAPSEPKPAAKDSPTKKKGVHKRSQHQGPDDIYLDDLKALEPEVAALYFPKSDTDPGSRQWPESDTFSGSQSPQSVGSAAADSGTECLSDSAMDLPDVTLSLCGGLSENGEISKEKFMEHIITYHEFAENPGLIDNPNLVIRIYNRYYNWALAAPMILSLQVFQKSLPKATVESWVKDKMPKKSGRWWFWRKKESMIKQLPETKEGKSEVPPANDLPSNAEEPTSARPAENDTSSDEGSQELEESIKVDPITVETLSHCGTASYKKSLRLSSDQIAKLKLHDGPNDVVFSITTQYQGTCRCAGTIYLWNWNDKVIISDIDGTITKSDALGQILPQLGKDWTHQGIARLYHSINENGYKFLYCSARAIGMADMTRGYLHWVNDKGTILPRGPLMLSPSSLFSAFHREVIEKKPEKFKIECLNDIKNLFAPSRQPFYAAFGNRPNDVYAYTQVGVPDCRIFTVNPKGELIQERTKGNKSSYHRLSELVEHVFPLLSKEQNSAFPCPEFSSFCYWRDPIPDLDLDDLA
binding [2]: binds
